Publication PMC10740027
No constants are given. Whether binding was seen depends on the method and setting. In cells and extracts the contact can be indirect. A result given as binding can be weak or reduced; the word gives no strength. Tags and fused reporters may be left off the sequences shown. Each block holds one molecule with its values, some of them ahead of it.

How the values were obtained:
[1] = biological target: T1, UBE2O, tagged, expressed from a plasmid (UniProt Q9C0C9); experiment: co-IP; truncation mutants of IFIT3 and UBE2O; tagged plasmids transfected into 293 T cells; IP with anti-HA and anti-Myc antibodies, IB with the corresponding antibodies
T1 sequence: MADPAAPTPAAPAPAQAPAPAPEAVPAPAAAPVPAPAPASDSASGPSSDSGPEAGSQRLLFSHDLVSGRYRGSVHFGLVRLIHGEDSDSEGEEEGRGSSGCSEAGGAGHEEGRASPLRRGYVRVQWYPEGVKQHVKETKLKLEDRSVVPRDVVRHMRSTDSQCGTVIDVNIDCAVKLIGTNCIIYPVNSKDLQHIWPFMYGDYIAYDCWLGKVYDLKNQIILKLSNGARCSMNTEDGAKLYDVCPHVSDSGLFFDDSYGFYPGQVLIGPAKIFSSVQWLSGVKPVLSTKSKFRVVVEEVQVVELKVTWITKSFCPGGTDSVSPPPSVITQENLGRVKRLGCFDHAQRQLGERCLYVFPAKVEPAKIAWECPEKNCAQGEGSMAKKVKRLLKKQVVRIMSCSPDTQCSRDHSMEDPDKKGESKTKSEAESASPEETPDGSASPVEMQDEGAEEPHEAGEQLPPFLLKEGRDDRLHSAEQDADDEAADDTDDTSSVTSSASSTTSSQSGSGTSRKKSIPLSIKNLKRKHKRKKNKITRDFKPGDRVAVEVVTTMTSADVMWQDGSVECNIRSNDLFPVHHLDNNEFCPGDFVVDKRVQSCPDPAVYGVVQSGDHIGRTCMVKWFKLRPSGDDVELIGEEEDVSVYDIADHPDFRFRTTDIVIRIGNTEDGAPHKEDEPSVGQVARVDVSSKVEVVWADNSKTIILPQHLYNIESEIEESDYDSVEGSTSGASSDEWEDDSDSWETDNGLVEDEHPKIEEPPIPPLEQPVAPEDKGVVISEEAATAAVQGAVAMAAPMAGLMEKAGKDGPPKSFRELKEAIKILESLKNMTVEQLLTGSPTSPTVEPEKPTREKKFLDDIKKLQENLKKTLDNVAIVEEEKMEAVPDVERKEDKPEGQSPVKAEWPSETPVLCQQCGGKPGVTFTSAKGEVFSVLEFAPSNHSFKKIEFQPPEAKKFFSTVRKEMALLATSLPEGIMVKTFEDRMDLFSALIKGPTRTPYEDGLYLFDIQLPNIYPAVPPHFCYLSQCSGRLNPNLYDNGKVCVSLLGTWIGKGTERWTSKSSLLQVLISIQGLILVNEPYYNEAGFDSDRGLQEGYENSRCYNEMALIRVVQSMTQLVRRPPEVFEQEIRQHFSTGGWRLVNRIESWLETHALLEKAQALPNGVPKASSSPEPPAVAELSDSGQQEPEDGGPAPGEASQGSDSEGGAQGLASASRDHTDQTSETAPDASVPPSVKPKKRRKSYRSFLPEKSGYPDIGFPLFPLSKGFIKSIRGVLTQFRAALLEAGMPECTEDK

[2] = biological target: D2 structural domain of UBE2O (truncation mutant); experiment: as above

- binding [1]: binds
Molecule: N-terminus of IFIT3 (truncation mutant) (domain or fragment)

- binding [2]: binds
B1: IFIT3, tagged, expressed from a plasmid (protein, UniProt O14879 1-490)
chain: MSEVTKNSLEKILPQLKCHFTWNLFKEDSVSRDLEDRVCNQIEFLNTEFKATMYNLLAYIKHLDGNNEAALECLRQAEELIQQEHADQAEIRSLVTWGNYAWVYYHLGRLSDAQIYVDKVKQTCKKFSNPYSIEYSELDCEEGWTQLKCGRNERAKVCFEKALEEKPNNPEFSSGLAIAMYHLDNHPEKQFSTDVLKQAIELSPDNQYVKVLLGLKLQKMNKEAEGEQFVEEALEKSPCQTDVLRSAAKFYRRKGDLDKAIELFQRVLESTPNNGYLYHQIGCCYKAKVRQMQNTGESEASGNKEMIEALKQYAMDYSNKALEKGLNPLNAYSDLAEFLETECYQTPFNKEVPDAEKQQSHQRYCNLQKYNGKSEDTAVQHGLEGLSISKKSTDKEEIKDQPQNVSENLLPQNAPNYWYLQGLIHKQNGDLLQAAKCYEKELGRLLRDAPSGIGSIFLSASELEDGSEEMGQGAVSSSPRELLSNSEQLN
